Assay results as given in article PMC2965115.
Where two headings read alike, the source gives them in different places. Results are given in words; binding and its absence hold for the method and conditions named. In cells and extracts the contact can be indirect. Here binding means that the protein was enriched with, or labelled near, the bait; the list need not be complete. For some assays here: A no says only that the protein was not detected with the bait. Blank lines part the entries; values can stand above or below the molecule they belong to.

Chains of the proteins cited; added tags and fusions are not shown. Lines headed by an entry give the natural chain unless they say otherwise; changes in a name come on top.
UniProt P90916: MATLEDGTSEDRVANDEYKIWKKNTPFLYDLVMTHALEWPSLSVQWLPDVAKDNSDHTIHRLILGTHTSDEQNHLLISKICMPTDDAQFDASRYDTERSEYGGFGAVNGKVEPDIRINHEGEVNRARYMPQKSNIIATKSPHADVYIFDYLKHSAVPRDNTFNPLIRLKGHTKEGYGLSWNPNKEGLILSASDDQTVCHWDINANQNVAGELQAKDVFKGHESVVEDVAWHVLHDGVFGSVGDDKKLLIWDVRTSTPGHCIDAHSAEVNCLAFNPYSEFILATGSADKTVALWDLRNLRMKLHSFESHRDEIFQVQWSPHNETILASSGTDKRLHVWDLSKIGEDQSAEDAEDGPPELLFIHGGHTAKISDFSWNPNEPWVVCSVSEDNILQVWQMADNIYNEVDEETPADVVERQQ
UniProt G5EBZ4: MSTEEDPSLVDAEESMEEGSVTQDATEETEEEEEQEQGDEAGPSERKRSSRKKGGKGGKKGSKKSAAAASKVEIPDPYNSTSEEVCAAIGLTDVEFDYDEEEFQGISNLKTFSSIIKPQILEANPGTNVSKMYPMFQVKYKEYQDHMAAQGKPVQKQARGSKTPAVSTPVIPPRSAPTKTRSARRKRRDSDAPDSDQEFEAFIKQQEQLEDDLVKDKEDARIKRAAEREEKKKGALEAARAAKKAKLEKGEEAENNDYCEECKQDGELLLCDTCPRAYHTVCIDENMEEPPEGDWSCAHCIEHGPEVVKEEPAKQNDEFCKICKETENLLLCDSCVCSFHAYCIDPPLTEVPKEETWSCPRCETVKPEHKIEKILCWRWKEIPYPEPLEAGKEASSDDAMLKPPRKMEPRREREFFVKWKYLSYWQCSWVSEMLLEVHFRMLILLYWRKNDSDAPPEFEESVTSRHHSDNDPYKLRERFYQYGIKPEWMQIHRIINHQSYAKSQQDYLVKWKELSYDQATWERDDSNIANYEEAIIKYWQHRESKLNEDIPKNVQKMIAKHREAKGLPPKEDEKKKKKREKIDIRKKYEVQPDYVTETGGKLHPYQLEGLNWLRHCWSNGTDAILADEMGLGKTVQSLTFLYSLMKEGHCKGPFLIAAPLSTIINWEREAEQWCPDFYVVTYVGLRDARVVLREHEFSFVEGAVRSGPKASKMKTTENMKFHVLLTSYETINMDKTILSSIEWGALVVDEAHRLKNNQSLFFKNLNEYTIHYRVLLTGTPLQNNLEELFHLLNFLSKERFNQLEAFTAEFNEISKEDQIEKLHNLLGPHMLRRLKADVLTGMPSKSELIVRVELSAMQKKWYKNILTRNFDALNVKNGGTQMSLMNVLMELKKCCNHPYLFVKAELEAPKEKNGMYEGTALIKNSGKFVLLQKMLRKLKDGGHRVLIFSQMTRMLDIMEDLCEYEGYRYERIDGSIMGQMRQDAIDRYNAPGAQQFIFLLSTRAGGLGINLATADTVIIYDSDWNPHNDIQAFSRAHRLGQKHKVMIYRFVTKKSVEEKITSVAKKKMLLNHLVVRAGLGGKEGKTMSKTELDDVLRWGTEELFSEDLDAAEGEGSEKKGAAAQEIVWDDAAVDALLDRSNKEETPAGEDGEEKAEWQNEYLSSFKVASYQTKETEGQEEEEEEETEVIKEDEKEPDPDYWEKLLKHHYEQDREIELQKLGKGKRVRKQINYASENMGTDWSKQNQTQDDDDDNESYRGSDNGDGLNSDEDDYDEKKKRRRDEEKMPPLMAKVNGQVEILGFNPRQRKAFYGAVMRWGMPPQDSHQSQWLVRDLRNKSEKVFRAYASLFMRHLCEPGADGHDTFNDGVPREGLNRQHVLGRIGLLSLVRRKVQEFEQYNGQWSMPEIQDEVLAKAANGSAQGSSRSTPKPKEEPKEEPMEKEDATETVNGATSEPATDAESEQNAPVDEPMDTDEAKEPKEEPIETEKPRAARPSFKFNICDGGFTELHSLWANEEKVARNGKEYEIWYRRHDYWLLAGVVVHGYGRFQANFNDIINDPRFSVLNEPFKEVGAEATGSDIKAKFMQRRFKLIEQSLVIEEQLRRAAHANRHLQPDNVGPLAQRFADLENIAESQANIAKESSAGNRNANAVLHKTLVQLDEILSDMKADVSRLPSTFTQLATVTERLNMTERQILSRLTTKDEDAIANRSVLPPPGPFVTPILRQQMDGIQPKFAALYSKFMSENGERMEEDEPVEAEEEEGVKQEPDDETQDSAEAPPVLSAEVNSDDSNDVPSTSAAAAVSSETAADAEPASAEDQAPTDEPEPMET
UniProt Q23482: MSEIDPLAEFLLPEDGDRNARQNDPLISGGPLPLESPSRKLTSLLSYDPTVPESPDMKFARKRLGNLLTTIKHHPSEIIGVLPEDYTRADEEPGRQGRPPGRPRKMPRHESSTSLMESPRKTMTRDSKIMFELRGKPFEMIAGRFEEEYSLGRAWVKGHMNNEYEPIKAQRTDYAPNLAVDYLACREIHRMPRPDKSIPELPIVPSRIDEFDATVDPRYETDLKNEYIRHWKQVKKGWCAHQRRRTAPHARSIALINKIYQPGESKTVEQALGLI
UniProt O17695: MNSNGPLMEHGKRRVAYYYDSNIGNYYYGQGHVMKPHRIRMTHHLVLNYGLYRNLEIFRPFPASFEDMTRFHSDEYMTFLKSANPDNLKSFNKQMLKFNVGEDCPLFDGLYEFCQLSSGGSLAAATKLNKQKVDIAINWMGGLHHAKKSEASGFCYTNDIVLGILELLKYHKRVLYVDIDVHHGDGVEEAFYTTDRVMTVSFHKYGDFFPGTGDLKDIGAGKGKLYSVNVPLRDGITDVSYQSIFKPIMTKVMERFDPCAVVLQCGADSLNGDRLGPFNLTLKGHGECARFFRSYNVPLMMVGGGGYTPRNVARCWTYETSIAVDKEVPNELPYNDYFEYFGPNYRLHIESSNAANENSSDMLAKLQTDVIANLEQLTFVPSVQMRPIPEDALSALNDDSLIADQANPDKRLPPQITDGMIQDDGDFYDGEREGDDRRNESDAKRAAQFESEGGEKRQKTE
UniProt Q22516: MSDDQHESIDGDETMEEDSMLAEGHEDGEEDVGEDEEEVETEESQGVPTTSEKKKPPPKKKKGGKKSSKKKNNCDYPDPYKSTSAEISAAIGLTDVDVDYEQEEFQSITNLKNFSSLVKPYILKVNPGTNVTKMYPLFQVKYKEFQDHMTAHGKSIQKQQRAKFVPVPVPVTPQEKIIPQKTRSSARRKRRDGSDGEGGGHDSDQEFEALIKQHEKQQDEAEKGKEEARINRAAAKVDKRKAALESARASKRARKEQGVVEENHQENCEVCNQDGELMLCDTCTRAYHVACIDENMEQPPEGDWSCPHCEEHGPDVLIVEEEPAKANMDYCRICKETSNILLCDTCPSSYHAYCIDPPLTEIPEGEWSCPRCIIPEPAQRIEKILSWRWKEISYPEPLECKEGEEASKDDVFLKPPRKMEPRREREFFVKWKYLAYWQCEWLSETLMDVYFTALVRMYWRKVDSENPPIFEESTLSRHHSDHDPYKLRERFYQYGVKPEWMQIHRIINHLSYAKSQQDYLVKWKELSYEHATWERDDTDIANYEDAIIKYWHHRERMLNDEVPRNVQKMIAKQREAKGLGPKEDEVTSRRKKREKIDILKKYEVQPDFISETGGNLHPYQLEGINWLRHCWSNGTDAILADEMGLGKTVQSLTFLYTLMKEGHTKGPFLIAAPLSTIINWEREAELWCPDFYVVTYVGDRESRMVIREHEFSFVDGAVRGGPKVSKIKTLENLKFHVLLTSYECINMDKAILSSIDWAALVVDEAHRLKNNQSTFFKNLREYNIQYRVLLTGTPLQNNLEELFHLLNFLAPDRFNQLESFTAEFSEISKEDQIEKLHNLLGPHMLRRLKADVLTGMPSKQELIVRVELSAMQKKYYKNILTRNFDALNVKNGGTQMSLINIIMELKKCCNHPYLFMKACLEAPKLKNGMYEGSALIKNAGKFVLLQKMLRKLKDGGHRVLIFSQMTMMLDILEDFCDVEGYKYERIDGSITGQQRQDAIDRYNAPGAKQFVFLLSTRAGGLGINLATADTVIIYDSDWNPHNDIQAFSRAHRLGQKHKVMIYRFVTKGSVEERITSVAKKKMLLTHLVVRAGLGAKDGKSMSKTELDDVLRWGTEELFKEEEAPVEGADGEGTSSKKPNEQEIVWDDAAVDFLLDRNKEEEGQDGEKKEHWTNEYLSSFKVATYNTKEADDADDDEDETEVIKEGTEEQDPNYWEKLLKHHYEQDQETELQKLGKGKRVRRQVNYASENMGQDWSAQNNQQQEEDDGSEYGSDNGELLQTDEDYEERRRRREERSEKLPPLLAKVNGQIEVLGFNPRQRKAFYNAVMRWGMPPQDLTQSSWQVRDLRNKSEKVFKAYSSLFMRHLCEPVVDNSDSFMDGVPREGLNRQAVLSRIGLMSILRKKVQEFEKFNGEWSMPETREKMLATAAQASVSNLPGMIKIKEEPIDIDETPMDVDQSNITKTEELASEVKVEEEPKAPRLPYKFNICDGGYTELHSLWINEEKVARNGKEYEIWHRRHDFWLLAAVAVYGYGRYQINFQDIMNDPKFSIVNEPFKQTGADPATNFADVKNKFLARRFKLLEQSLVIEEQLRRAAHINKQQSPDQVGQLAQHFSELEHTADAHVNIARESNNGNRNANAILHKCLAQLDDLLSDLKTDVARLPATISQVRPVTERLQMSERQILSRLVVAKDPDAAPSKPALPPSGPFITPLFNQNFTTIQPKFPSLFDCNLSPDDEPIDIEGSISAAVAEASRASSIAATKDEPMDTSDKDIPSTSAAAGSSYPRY
UniProt P41877: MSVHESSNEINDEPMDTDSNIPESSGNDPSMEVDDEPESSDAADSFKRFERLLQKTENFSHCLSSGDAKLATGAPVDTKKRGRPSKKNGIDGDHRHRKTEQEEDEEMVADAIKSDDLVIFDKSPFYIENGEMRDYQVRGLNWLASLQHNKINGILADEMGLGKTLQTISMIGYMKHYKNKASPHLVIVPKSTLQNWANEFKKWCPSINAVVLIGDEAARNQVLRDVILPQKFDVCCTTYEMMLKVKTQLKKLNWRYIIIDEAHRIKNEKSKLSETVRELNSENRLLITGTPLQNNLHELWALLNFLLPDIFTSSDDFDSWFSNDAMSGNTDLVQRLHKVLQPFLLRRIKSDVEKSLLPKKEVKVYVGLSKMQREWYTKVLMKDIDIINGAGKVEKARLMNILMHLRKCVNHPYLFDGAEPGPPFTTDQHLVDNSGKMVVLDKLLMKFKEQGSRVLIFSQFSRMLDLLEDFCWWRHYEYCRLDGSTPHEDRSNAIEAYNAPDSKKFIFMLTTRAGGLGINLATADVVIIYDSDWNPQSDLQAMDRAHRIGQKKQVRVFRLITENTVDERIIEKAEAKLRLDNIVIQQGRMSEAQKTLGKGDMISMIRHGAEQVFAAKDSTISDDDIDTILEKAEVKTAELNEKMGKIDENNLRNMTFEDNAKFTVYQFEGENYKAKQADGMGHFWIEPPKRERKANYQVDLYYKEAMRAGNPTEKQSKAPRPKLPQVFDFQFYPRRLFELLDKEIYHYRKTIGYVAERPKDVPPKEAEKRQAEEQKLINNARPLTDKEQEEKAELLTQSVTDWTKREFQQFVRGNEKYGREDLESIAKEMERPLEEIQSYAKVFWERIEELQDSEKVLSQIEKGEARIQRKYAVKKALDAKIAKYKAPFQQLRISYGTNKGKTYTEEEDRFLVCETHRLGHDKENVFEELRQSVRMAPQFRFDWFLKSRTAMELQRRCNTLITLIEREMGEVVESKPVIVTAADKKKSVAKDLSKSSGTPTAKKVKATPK

What was measured:
LIN-53::TAP (C. elegans) [1] = molecular target: LIN-53::TAP (C. elegans) (UniProt P90916); experiment: affinity purification with mass spectrometry; tandem affinity purification of LIN-53::TAP from worm extract in PEB buffer (50 mM HEPES pH 7.2, 150 mM KCl, 20% glycerol, 0.3% NP-40); eluates identified by LC/MS/MS
LIN-53::TAP (C. elegans) [2] = molecular target: LIN-53::TAP (C. elegans) (UniProt P90916); experiment: as above; remark: listed apart in the source

binding (LIN-53::TAP (C. elegans) [1]): binds
Molecule: LET-418 (from UniProt G5EBZ4 1-1829)

binding (LIN-53::TAP (C. elegans) [1]): binds
Molecule: LIN-37 (from UniProt Q23482)

binding (LIN-53::TAP (C. elegans) [1]): binds
Molecule: NURF-1 (from UniProt Q6BER5 1-2194)

binding (LIN-53::TAP (C. elegans) [1]): binds
Molecule: HDA-1 (from UniProt O17695 1-461)

binding (LIN-53::TAP (C. elegans) [1]): binds
Molecule: CHD-3 (from UniProt Q22516 1-1787)

binding (LIN-53::TAP (C. elegans) [1]): binds
Molecule: ISW-1 (from UniProt P41877 1-1009)

binding (LIN-53::TAP (C. elegans) [2]): no binding
B1: RBA-1 (protein, UniProt P90917 1-412)
chain: MSEAESCEETSKEHRIWKKNVPYLYDTVVTKEVEWPSLSVQWMPDVTKTENSDSSMHRMIHGTHTCGGVQNHLMISKFTITTDTPEFDDAKWDSEREEFGGYGEGSAAKWDTEIKINHPGEVHRARYMPHNPFIIASRGPSDDVYIFDYTKHPSEPKDTKFRPQLRLKGHEGEGYGMSWSNTREGHLLTAGDDGMICHWDINANQTISGQIVPQSKFKGHSSNAEDVSFHALHNFVFGSVGDDRKLNLWDLRQSKPQLTAVGHTAEVNCITFNPFSEYILATGSVDKTVALWDMRNMRKKMYTLKHHNDEIFQVSFSPHYETVLASSGSDDRVIVWDISKIQDPSSSSAASSDSVPPEVIFIHAGHTGKVADFSWNPNRPWTICSSDEFNALQVWEVSNSLVSSEKWETEMI

binding (LIN-53::TAP (C. elegans) [2]): binds
B2: LIN-9 (protein, UniProt P30630 1-644)
chain: MSSAVRSPRKKAASDTSDPDRTSSPYSLRETSKVPSRYRNEELYLSPSRSIKRTGSPKKSPAKRLNGGRDSPSVNSLTRNSSLTMLAKAALDYESSSCALEYIFQPKEERRPPRRALALSPPPAPSNDLLAKDLEMIEMHQNLVAGLDDLDNPANMTNEAVEHRDTQSFFNMFSTDQERSAMMKQFKTYKNQTSEDVSTFMRANIKKLYNLLRYKKARQWVMCEFFYSAIDEQIFKEENEFATIIRESFPNLKNWNLTRIEWRSIRKLLGKPRRCSKVFFEEERMYLEEKRMKIRSVYEGSYLNDPSIDLKDLPAKLPRPMVVGNRVFARIRNPYDGIYSGIIDAVIPKGFRIIFDKPDIPPTLVSDTEILLDGKLDLLSIAYFIEQANSKLPSGVRPFVAAVRDSSHPHLVRDVLVSRKIERSGGPLMGPNDERLNGKNAEMVGNFPLKFLVNLVKLTKLIDIKKGLIRQLNELNADAEIQNMTSDKYSKAFQEKYAKTIIDLEHVNQNIDINMNGIQDHHMYFSSNDISTSNMKPEAVRQMCSQQAGRFVEHCNQGLNVENVHALTLIQSLTAVLLQVRTMGTQKISAVDLQSLGDAISEIRTAIHPRNVAFFQDYVEVHMKQFHTIMLESGALAGTVSNRK

binding (LIN-53::TAP (C. elegans) [2]): binds
B3: LIN-59 (protein, UniProt O44757 1-1312)
chain: MHGAGEQQQRYRYNARSDEQHHHPSTSSHQYQQQGARQMHQMHPIQATLMCTPTTTSAAASTSSSGGSNSSGGSGGHRQQGNILRIGNSIKIGDNILEPAGTLVFSQADGTPWTGQRIVVNGSTHAVVKANLFPIGTTPPVLNMQSNQNWYMNQPSGTVPMSSNAPATTSSATPDSGIQSVPTSPPSPSYAMMNDVDIGDHDDEEDDDGPADFTDMPLLKPVDEDDDCYDVPCTSEGPPPNNSNPAITTIPSSCSTPAPPKESLPTGMNVEEWGSFLIASNMDREEIVRRLMAHDPEMAKAIAMRIRELSAEESKKKKDMEAEVSSTTPTTPRARGTRTRNKCATRSTNSPDVTTSNLPEEPSTSTMGLVKENEDVEKVEGKRRGRKPKKRRGFHKESFEDLESDAKKSKAEQHEDHLPEASCSSRPESVIPPPVDPIQFRLKVREMMERKLEQLTQKMSEDMTELRLSHLTSSKMVNGERGKRRESFLRQLNEQSKKLRKGGMLGRKRLRMFMTESDILEENKDNIKKEVKEESTPPPTKLRGRLPSRRTREPSEIVNPEPVEKKFNGEYFEITKSVPSSDDIIPLWMAPSLTCGCTKGACTSDMDCLNRALRVQCSSDCSVPYCSNRRFWKEDCGNKLCVSNGPRSKRVLKTKIARRAGEFLCEYAGEVITREQAQEKFAQDRDPRIIAIAAHLFVDATKRSNIARFIKHSCKPNSRLEVWSVNGFYRAGVFALSDLNPNAEITVDKSDLLPFDMACNCGATECKRVIRGVRWRCADPNEKIVTRRFVIRNRRKTIERSSHSGLPAILQTPMDENSSIRLKMKQVLAAFAFRVRKIDGSMSRTMLPHYTLIIKFLKTKGNNPNPVEFVSLFRKWLEAIDDDDLERAFVAIESHYMSSSILSSSLQSKKAKDNAPRARALSTSCPSPVPSKRGDADLSYLESLYPIGSYDPDDAWESYSTNKKGNAVRCICGALDEEGTMVQCDTCHFWLHVDCCQYVVRSNEKAQKSKNPPSDDGEYICDFCTNKQNGLRPSADVKLTEQPDVRFENCDYYRSLINRRGIQVVLNETVYVNRVLPEDHKAMLRNLREEKKGSKQKDTNKYRFPKAATSPLPIEKVDRKNARIFRVERLFVCPGNNRFVFGSFYAWPHETYADAGRVFSKKEVFATPYYETLPLDEVIGRCLVLDTATWCKGRPKVPKFKEDDVFLCEMQIGKTQRVFEKVPPKNRYPINTNSYVFTEFTHPKKVVRDFRPYDPSNPSPKPPKTSSIPSTSSIDPPQSSSDGLPEVDTKKLSKRHIQRVLKRLVKNGSRRS

binding (LIN-53::TAP (C. elegans) [2]): no binding
B4: EGL-27 (protein, UniProt Q09228 1-1129)
chain: MSRFDSQCSSEDVNKEDECVPSSSEDSQDGVSSPMENDDEPEFSQKHYDIEPCYYSLTGKSDRNCRGIVYRYRQDSDLKGFQSHDGTLYRLRDSVFVEVSQNEPYVIAAICGFKYTKRDHVVVKLTRYFRADDIPEISLNLMKQERAELEINPHLCPQSLNRELFNSELQITQPVSCLRGKCIVEYVKDVRHARTVADFSLDNDTFFFCLHYNQDSTKLASTHYAIRVGTSFQATLPPMAECSVGDDSDRDELLYRPNSIESGEEEDYIKLARCYRTYTLSGNHMLDSQKNARSLQVSDLLMDEAIIQLHRSGYKIDDALSELNANDIILTTDVDNMTQDDAKKFAKGIKQLGKNFSRIHRELLPHHSREQLVSYYYLWKKTPEATKPKQAARRVNPTSIKRPTKEKVKASRPTSTEYLDFDSASESDVENNGPSGRACHHCYGAESKDWHHANGLLLCTDCRLHYKKYGQLRQIANRPSQVPACLFKRSNSDEEESGVRTRAGKKEQRRRTPSSMSETPDRRSPSTVSNGAPNLTAEETPTKKLNGSVKRAPKRPLHNGVINNVEKSNSSEEPASPTTPPPTLTNGLTNGHGPESSTPNGETISKRMKVEPSYDDDDDEEEGKMTIDEGDDDPMPVLNGFKKEESVEEIKLELNGTIKKENGVETDPTTPTCSMEAENEVCETPAVVSVEIRDETNGETNSDLKDDENVEPDSPEDTFELGSNVEFETKNAMFVRSIVRSCGPRCARTDLIFKIKVGGVWEKSIKEKEERKKVHLQNQRIQDSEKVAIQQNQIKKEQQQSQPTPQQIHQQQAQQNAQHLQQLQQAVMLGHLPPEVLRQMMPPQFGVDPTAILMQQMMAGQQSQGVNAAFQHQMALQQQLEAHQVQFQLMMAHQHQQKMIAEQQQQQRHAAAQQLREREQREQRERERERQHQQQAQQALHQQQQQHAAAAANQLNPAMMQMMALMANSAASQQDIARLMEMAAQQQQQQQQAAQAQAQRDQERERREREAREREAAREREREQAAREAAARDQAAREHAQAVQAAAAAAQQAQALTPDMQHMHLLQQLMLNPALMMQLQQAQAQQQQQQPQVTNPLQMLQHGMAAQSANQAEMMRRIHPEPAMRPQHQ

binding (LIN-53::TAP (C. elegans) [2]): binds
B5: CPSF-1 (protein, UniProt Q9N4C2 1-1454)
chain: MYGYLRETDDSTAINFSAYGKFLPGENTGFQLLTIGAKFIRIFRVNPYVLKEPGEDNEEWQQKTKLECMFSCRLLNKCHSIAVARVPQLPDQDSILMTFDDAKLSIVSINEKERNMQTISLHAFENEYLRDGFINHFQPPLVRSDPSNRCAACLVYGKHIAILPFHENSKRIHSYVIPLKQIDPRLDNIADMVFLDGYYEPTILFLYEPIQTTPGRACVRYDTMCIMGVSVNIVDRQFAVVWQTANLPMDCSQLLPIPKPLGGALVFGSNTVVYLNQAVPPCGLVLNSCYDGFTKFPLKDLKHLKMTLDCSTSVYMEDGRIAVGSRDGDLFLLRLMTSSGGGTVKSLEFSKVYETSIAYSLTVCAPGHLFVGSRLGDSQLLEYTLLKTTRDCAVKRLKIDNKDPAAAEIELDEDDMELYGGAIEEQQNDDDEQIDESLQFRELDRLRNVGPVKSMCVGRPNYMSNDLVDAKRRDPVFDLVTASGHGKNGALCVHQRSLRPEIITSSLLEGAEQLWAVGRKENESHKYLIVSRVRSTLILELGEELVELEEQLFVTGEPTVAAGELSQGALAVQVTSTCIALVTDGQQMQEVHIDSNFPVIQASIVDPYVALLTQNGRLLLYELVMEPYVQLREVDISATSFATWHATAQNLTQLTSISIYADASEIMKFAAAEKSMGGGGGGDGEVSTAENAMMKKEQHEEAILLHGEDDDFLYGDEDETIMEQNFPVENGEATIKQSNTRKRKRLGHDAIQSSRGGEQSDAIDPTRTFSSISHWLIVSHENGRLSIHSLPEMEVVYQIGRFSNVPELLVDLTVEEEEKERKAKAQQAAKEASVPTDEAEQLNTEMKQLCERVLEAQIVGMGINQAHPILMAIVDEQVVLYEMFSSSNPIPGHLGISFRKLPHFICLRTSSHLNSDGKRAPFEMKINNGKRFSLIHPFERVSSVNNGVMIVGAVPTLLVYGAWGGMQTHQMTVDGPIKAFTPFNNENVLHGIVYMTQHKSELRIARMHPDFDYEMPYPVKKIEVGRTIHHVRYLMNSDVYAVVSSIPKPSNKIWVVMNDDKQEEIHEKDENFVLPAPPKYTLNLFSSQDWAAVPNTEISFEDMEAVTACEDVALKSESTISGLETLLAMGTVNNYGEEVLVRGRIILCEVIEVVPEPDQPTSNRKIKVLFDKEQKGPVTGLCAINGLLLCGMGQKVFIWQFKDNDLMGISFLDMHYYVYQLHSLRTIAIACDARESMSLIRFQEDNKAMSIASRDDRKCAQPPMASQLVVDGAHVGFLLSDETGNITMFNYAPEAPESNGGERLTVRAAINIGTNINAFVRLRGHTSLLQLNNEDEKEAIEQRMTTVFASLDGSFGFVRPLTEKSYRRLHFLQTFIGSVTPQIAGLHIKGSRSAKPSQPIVNGRNARNLIDGDVVEQYLHLSLYDKTDLARRLGVGRYHIIDDLMQLRRMAFYY
